Source: PMC4742742
Results are given in words; binding and its absence hold for the method and conditions named. Binding seen in cells or lysates may run through a third protein. Some results given as binding are weak or reduced against the parent protein; the word gives no strength.

Legend:
[1] = target: Extracellular fibrinogen-binding protein (Efb), recombinant full-length Efb (residues 29-165), His-tagged (Staphylococcus aureus); test: pull-down; His-tagged Efb or Efb-N on His-Select HF nickel affinity gel; human platelet lysate (ultrasonication) without added fibrinogen; immunoblot; only the target purified
[2] = target: N-terminal region of Efb (Efb-N), recombinant residues 29-103, His-tagged (Staphylococcus aureus); test: as above
[3] = target: Extracellular fibrinogen-binding protein (Efb), recombinant full-length Efb (residues 29-165), His-tagged (Staphylococcus aureus); test: pull-down; His-tagged Efb or Efb-N on His-Select HF nickel affinity gel; human platelet lysate (ultrasonication) with 3 mg/ml added fibrinogen; immunoblot; only the target purified
[4] = target: N-terminal region of Efb (Efb-N), recombinant residues 29-103, His-tagged (Staphylococcus aureus); test: as above

Measured: binding

B1: Multimerin-1 (protein, UniProt Q13201 20-1228)
chain: LNNSKHSWTIPEDGNSQKTMPSASVPPNKIQSLQILPTTRVMSAEIATTPEARTSEDSLLKSTLPPSETSAPAEGVRNQTLTSTEKAEGVVKLQNLTLPTNASIKFNPGAESVVLSNSTLKFLQSFARKSNEQATSLNTVGGTGGIGGVGGTGGVGNRAPRETYLSRGDSSSSQRTDYQKSNFETTRGKNWCAYVHTRLSPTVILDNQVTYVPGGKGPCGWTGGSCPQRSQKISNPVYRMQHKIVTSLDWRCCPGYSGPKCQLRAQEQQSLIHTNQAESHTAVGRGVAEQQQQQGCGDPEVMQKMTDQVNYQAMKLTLLQKKIDNISLTVNDVRNTYSSLEGKVSEDKSREFQSLLKGLKSKSINVLIRDIVREQFKIFQNDMQETVAQLFKTVSSLSEDLESTRQIIQKVNESVVSIAAQQKFVLVQENRPTLTDIVELRNHIVNVRQEMTLTCEKPIKELEVKQTHLEGALEQEHSRSILYYESLNKTLSKLKEVHEQLLSTEQVSDQKNAPAAESVSNNVTEYMSTLHENIKKQSLMMLQMFEDLHIQESKINNLTVSLEMEKESLRGECEDMLSKCRNDFKFQLKDTEENLHVLNQTLAEVLFPMDNKMDKMSEQLNDLTYDMEILQPLLEQGASLRQTMTYEQPKEAIVIRKKIENLTSAVNSLNFIIKELTKRHNLLRNEVQGRDDALERRINEYALEMEDGLNKTMTIINNAIDFIQDNYALKETLSTIKDNSEIHHKCTSDMETILTFIPQFHRLNDSIQTLVNDNQRYNFVLQVAKTLAGIPRDEKLNQSNFQKMYQMFNETTSQVRKYQQNMSHLEEKLLLTTKISKNFETRLQDIESKVTQTLIPYYISVKKGSVVTNERDQALQLQVLNSRFKALEAKSIHLSINFFSLNKTLHEVLTMCHNASTSVSELNATIPKWIKHSLPDIQLLQKGLTEFVEPIIQIKTQAALSNLTCCIDRSLPGSLANVVKSQKQVKSLPKKINALKKPTVNLTTVLIGRTQRNTDNIIYPEEYSSCSRHPCQNGGTCINGRTSFTCACRHPFTGDNCTIKLVEENALAPDFSKGSYRYAPMVAFFASHTYGMTIPGPILFNNLDVNYGASYTPRTGKFRIPYLGVYVFKYTIESFSAHISGFLVVDGIDKLAFESENINSEIHCDRVLTGDALLELNYGQEVWLRLAKGTIPAKFPPVTTFSGYLLYRT
binds: [1] | [2] | [3] | [4]
